{"source": "paper PMC4373942", "note": "Results are given in words; binding and its absence hold for the method and conditions named. Binding can be weak; no strength is given. Tags and fused reporters may be left off the sequences shown. For part of these data: Binding seen in cells or lysates may run through a third protein."}
{"biological_target": "ZmJAZ14 (split-YFP fusion for BiFC) (maize (Zea mays L.))", "assay": "split reporter; BiFC with N- and C-terminal fragments of YFP (pUC-SPYNE, pUC-SPYCE), co-expressed in maize mesophyll protoplasts, 16 h, confocal microscopy"}
{"binder": "MYB21 (split-YFP fusion for BiFC) (protein, UniProt Q9LK95 1-226) MEKRGGGSSGGSGSSAEAEVRKGPWTMEEDLILINYIANHGDGVWNSLAKSAGLKRTGKSCRLRWLNYLRPDVRRGNITPEEQLIIMELHAKWGNRWSKIAKHLPGRTDNEIKNFWRTRIQKYIKQSDVTTTSSVGSHHSSEINDQAASTSSHNVFCTQDQAMETYSPTPTSYQHTNMEFNYGNYSAAAVTATVDYPVPMTVDDQTGENYWGMDDIWSSMHLLNGN", "binding": "binds"}
{"biological_target": "ZmJAZ14 (GAL4 DNA-binding domain fusion, pGBK-ZmJAZ14) (maize (Zea mays L.))", "assay": "two-hybrid; GAL-4 based yeast two-hybrid in yeast AH109; pGBK-ZmJAZ14 (bait) with Arabidopsis proteins in pGAD-T7; growth on SD-L-T-A-H against SD/-L-T; serial dilutions from OD600 = 1, 4 days at 28°C"}
{"binder": "RGL1 (GAL4 activation domain fusion, pGAD-T7) (protein, UniProt Q9C8Y3 1-511) MKREHNHRESSAGEGGSSSMTTVIKEEAAGVDELLVVLGYKVRSSDMADVAHKLEQLEMVLGDGISNLSDETVHYNPSDLSGWVESMLSDLDPTRIQEKPDSEYDLRAIPGSAVYPRDEHVTRRSKRTRIESELSSTRSVVVLDSQETGVRLVHALLACAEAVQQNNLKLADALVKHVGLLASSQAGAMRKVATYFAEGLARRIYRIYPRDDVALSSFSDTLQIHFYESCPYLKFAHFTANQAILEVFATAEKVHVIDLGLNHGLQWPALIQALALRPNGPPDFRLTGIGYSLTDIQEVGWKLGQLASTIGVNFEFKSIALNNLSDLKPEMLDIRPGLESVAVNSVFELHRLLAHPGSIDKFLSTIKSIRPDIMTVVEQEANHNGTVFLDRFTESLHYYSSLFDSLEGPPSQDRVMSELFLGRQILNLVACEGEDRVERHETLNQWRNRFGLGGFKPVSIGSNAYKQASMLLALYAGADGYNVEENEGCLLLGWQTRPLIATSAWRINRVE", "binding": "binds"}
{"binder": "GL3 (GAL4 activation domain fusion, pGAD-T7) (protein, UniProt Q9FN69 1-637) MATGQNRTTVPENLKKHLAVSVRNIQWSYGIFWSVSASQSGVLEWGDGYYNGDIKTRKTIQASEIKADQLGLRRSEQLSELYESLSVAESSSSGVAAGSQVTRRASAAALSPEDLADTEWYYLVCMSFVFNIGEGMPGRTFANGEPIWLCNAHTADSKVFSRSLLAKSAAVKTVVCFPFLGGVVEIGTTEHITEDMNVIQCVKTSFLEAPDPYATILPARSDYHIDNVLDPQQILGDEIYAPMFSTEPFPTASPSRTTNGFDQEHEQVADDHDSFMTERITGGASQVQSWQLMDDELSNCVHQSLNSSDCVSQTFVEGAAGRVAYGARKSRVQRLGQIQEQQRNVKTLSFDPRNDDVHYQSVISTIFKTNHQLILGPQFRNCDKQSSFTRWKKSSSSSSGTATVTAPSQGMLKKIIFDVPRVHQKEKLMLDSPEARDETGNHAVLEKKRREKLNERFMTLRKIIPSINKIDKVSILDDTIEYLQELERRVQELESCRESTDTETRGTMTMKRKKPCDAGERTSANCANNETGNGKKVSVNNVGEAEPADTGFTGLTDNLRIGSFGNEVVIELRCAWREGVLLEIMDVISDLHLDSHSVQSSTGDGLLCLTVNCKHKGSKIATPGMIKEALQRVAWIC", "binding": "binds"}
{"binder": "PAP1 (GAL4 activation domain fusion, pGAD-T7) (protein, UniProt Q9FE25 1-248) MEGSSKGLRKGAWTTEEDSLLRQCINKYGEGKWHQVPVRAGLNRCRKSCRLRWLNYLKPSIKRGKLSSDEVDLLLRLHRLLGNRWSLIAGRLPGRTANDVKNYWNTHLSKKHEPCCKIKMKKRDITPIPTTPALKNNVYKPRPRSFTVNNDCNHLNAPPKVDVNPPCLGLNINNVCDNSIIYNKDKKKDQLVNNLIDGDNMWLEKFLEESQEVDILVPEATTTEKGDTLAFDVDQLWSLFDGETVKFD", "binding": "binds"}
{"binder": "GL1 (GAL4 activation domain fusion, pGAD-T7) (protein, UniProt P27900 1-228) MRIRRRDEKENQEYKKGLWTVEEDNILMDYVLNHGTGQWNRIVRKTGLKRCGKSCRLRWMNYLSPNVNKGNFTEQEEDLIIRLHKLLGNRWSLIAKRVPGRTDNQVKNYWNTHLSKKLVGDYSSAVKTTGEDDDSPPSLFITAATPSSCHHQQENIYENIAKSFNGVVSASYEDKPKQELAQKDVLMATTNDPSHYYGNNALWVHDDDFELSSLVMMNFASGDVEYCL", "binding": "binds"}
{"binder": "MYB21 (GAL4 activation domain fusion, pGAD-T7) (protein, UniProt Q9LK95 1-226) MEKRGGGSSGGSGSSAEAEVRKGPWTMEEDLILINYIANHGDGVWNSLAKSAGLKRTGKSCRLRWLNYLRPDVRRGNITPEEQLIIMELHAKWGNRWSKIAKHLPGRTDNEIKNFWRTRIQKYIKQSDVTTTSSVGSHHSSEINDQAASTSSHNVFCTQDQAMETYSPTPTSYQHTNMEFNYGNYSAAAVTATVDYPVPMTVDDQTGENYWGMDDIWSSMHLLNGN", "binding": "binds"}
{"binder": "MYB24 (GAL4 activation domain fusion, pGAD-T7) (protein, UniProt Q9SPG9 1-214) MEKRESSGGSGSGDAEVRKGPWTMEEDLILINYIANHGEGVWNSLAKSAGLKRTGKSCRLRWLNYLRPDVRRGNITPEEQLTIMELHAKWGNRWSKIAKHLPGRTDNEIKNFWRTKIQKYIIKSGETTTVGSQSSEFINHHATTSHVMNDTQETMDMYSPTTSYQHASNINQQLNYGNYVPESGSIMMPLSVDQSEQNYWSVDDLWPMNIYNGN", "binding": "binds"}
{"binder": "EIL1 (GAL4 activation domain fusion, pGAD-T7) (protein, UniProt Q9SLH0 1-584) MMMFNEMGMYGNMDFFSSSTSLDVCPLPQAEQEPVVEDVDYTDDEMDVDELEKRMWRDKMRLKRLKEQQSKCKEGVDGSKQRQSQEQARRKKMSRAQDGILKYMLKMMEVCKAQGFVYGIIPEKGKPVTGASDNLREWWKDKVRFDRNGPAAIAKYQSENNISGGSNDCNSLVGPTPHTLQELQDTTLGSLLSALMQHCDPPQRRFPLEKGVSPPWWPNGNEEWWPQLGLPNEQGPPPYKKPHDLKKAWKVGVLTAVIKHMSPDIAKIRKLVRQSKCLQDKMTAKESATWLAIINQEEVVARELYPESCPPLSSSSSLGSGSLLINDCSEYDVEGFEKEQHGFDVEERKPEIVMMHPLASFGVAKMQHFPIKEEVATTVNLEFTRKRKQNNDMNVMVMDRSAGYTCENGQCPHSKMNLGFQDRSSRDNHQMVCPYRDNRLAYGASKFHMGGMKLVVPQQPVQPIDLSGVGVPENGQKMITELMAMYDRNVQSNQTPPTLMENQSMVIDAKAAQNQQLNFNSGNQMFMQQGTNNGVNNRFQMVFDSTPFDMAAFDYRDDWQTGAMEGMGKQQQQQQQQQDVSIWF", "binding": "binds"}
{"binder": "AtJAZ7 (GAL4 activation domain fusion, pGAD-T7) (protein, UniProt O64687 1-148) MIIIIKNCDKPLLNFKEMEMQTKCDLELRLLTSSYDSDFHSSLDESSSSEISQPKQESQILTIFYNGHMCVSSDLTHLEANAILSLASRDVEEKSLSLRSSDGSDPPTIPNNSTRFHYQKASMKRSLHSFLQKRSLRIQATSPYHRYR", "binding": "no binding"}
